Reference: the supplement of paper PMC4604168 (melanoma cell lines)
The other results are listed elsewhere or left out. Repeats are few or missing, and single values can be far off.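 The apoptosis fraction was the count of cleaved-PARP antibody-stained nuclei relative to all DNA-stained nuclei, imaged in 1,536-well plates. Screening doses were set so most cells survived, and baseline and induced cleaved-PARP levels vary greatly across cell lines.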

Columns and labels:
Experiment in all cases: cleaved PARP positive nuclei fraction relative to DMSO control; melanoma cells; higher = more apoptosis
Details in all cases: library dose: low library concentration; 72 h
[1] = test system: MZ2-MEL
[2] = test system: MeWo
[3] = test system: RPMI7951
[4] = test system: RVH-421
[5] = test system: SkMel28
[6] = test system: SkMel2
[7] = test system: SkMel30
[8] = test system: UACC62
[9] = test system: WM115
[10] = test system: WM1716
[11] = test system: WM1745
[12] = test system: WM3526
[13] = test system: WM3619
[14] = test system: WM451Lu

| Structure (SMILES) | cleaved PARP positive nuclei fraction [1] [%] | cleaved PARP positive nuclei fraction [2] [%] | cleaved PARP positive nuclei fraction [3] [%] | cleaved PARP positive nuclei fraction [4] [%] | cleaved PARP positive nuclei fraction [5] [%] | cleaved PARP positive nuclei fraction [6] [%] | cleaved PARP positive nuclei fraction [7] [%] | cleaved PARP positive nuclei fraction [8] [%] | cleaved PARP positive nuclei fraction [9] [%] | cleaved PARP positive nuclei fraction [10] [%] | cleaved PARP positive nuclei fraction [11] [%] | cleaved PARP positive nuclei fraction [12] [%] | cleaved PARP positive nuclei fraction [13] [%] | cleaved PARP positive nuclei fraction [14] [%] |
| --- | --- | --- | --- | --- | --- | --- | --- | --- | --- | --- | --- | --- | --- | --- |
| C=C(c1ccc(C(=O)O)cc1)c1cc2c(cc1C)C(C)(C)CCC2(C)C [Bexarotene] + OCc1c[nH]c2ccccc12 [Indole-3-carbinol] (first compound 2 µM, partner dose 0.8 µM) | 94.6 | 72 | 191 | 110 | 386 | 91.2 | 43.8 | 131 | 51.9 | 91 | 86.8 | 173 | 95.3 | 60.9 |
| Nc1nc(F)nc2c1ncn2[C@@H]1O[C@H](CO)[C@@H](O)[C@@H]1O [fludarabine] + C#Cc1cccc(Nc2ncnc3cc(OCCOC)c(OCCOC)cc23)c1 [erlotinib] (first compound 0.2 µM, partner dose 0.8 µM) | 75.8 | 680 | 51 | 54.4 | 198 | 450 | 1610 | 99.3 | 76.7 | 42.5 | 103 | 2080 | 78.6 | 284 |
| CS(=O)(=O)CCNCc1ccc(-c2ccc3ncnc(Nc4ccc(OCc5cccc(F)c5)c(Cl)c4)c3c2)o1 [lapatinib] + Nc1ccn([C@@H]2O[C@H](CO)[C@@H](O)C2(F)F)c(=O)n1 [gemcitabine] (first compound 0.8 µM, partner dose 0.0004 µM) | 82.4 | 107 | 158 | 123 | 40.4 | 76.3 | 110 | 116 | 56 | 63.9 | 104 | 74.8 | 88.6 | 185 |
| Nc1ncn([C@H]2C[C@H](O)[C@@H](CO)O2)c(=O)n1 [decitabine] + Clc1ccc(Nc2nnc(Cc3ccncc3)c3ccccc23)cc1 [vatalanib] (first compound 0.1 µM, partner dose 2 µM) | 101 | 138 | 66.9 | 97.5 | 189 | 65.7 | 107 | 140 | 150 | 89.7 | 127 | 276 | 102 | 66.9 |
| CN1CCN(c2ccc3nc(-c4c(N)c5c(F)cccc5[nH]c4=O)[nH]c3c2)CC1 [Dovitinib] + Clc1ccc(Nc2nnc(Cc3ccncc3)c3ccccc23)cc1 [vatalanib] (first compound 0.1 µM, partner dose 2 µM) | 46 | 149 | 177 | 74.8 | 47.7 | 109 | 317 | 92 | 117 | 74.4 | 121 | 41.1 | 104 | 360 |
| Nc1nc(F)nc2c1ncn2[C@@H]1O[C@H](CO)[C@@H](O)[C@@H]1O [fludarabine] + Cc1nc(Nc2ncc(C(=O)Nc3c(C)cccc3Cl)s2)cc(N2CCN(CCO)CC2)n1 [dasatanib] (first compound 0.2 µM, partner dose 0.004 µM) | 108 | 2540 | 185 | 185 | 63.8 | 380 | 756 | 89.6 | 261 | 178 | 134 | 355 | 92.1 | 269 |
| Cn1c(=O)n(-c2ccc(C(C)(C)C#N)cc2)c2c3cc(-c4cnc5ccccc5c4)ccc3ncc21 + OCc1c[nH]c2ccccc12 [Indole-3-carbinol] (first compound 0.004 µM, partner dose 0.8 µM) | 126 | 34.9 | 106 | 93.9 | 43.8 | 163 | 124 | 290 | 153 | 106 | 90.1 | 46.3 | 114 | 87.2 |
| C=C(c1ccc(C(=O)O)cc1)c1cc2c(cc1C)C(C)(C)CCC2(C)C [Bexarotene] + Nc1ccn([C@@H]2O[C@H](CO)[C@@H](O)C2(F)F)c(=O)n1 [gemcitabine] (first compound 2 µM, partner dose 0.0004 µM) | 97.6 | 88 | 250 | 65.1 | 45.4 | 90.4 | 30.5 | 43.6 | 47 | 167 | 226 | 94.9 | 104 | 45.9 |
| CS(=O)(=O)CCNCc1ccc(-c2ccc3ncnc(Nc4ccc(OCc5cccc(F)c5)c(Cl)c4)c3c2)o1 [lapatinib] + COCC[n+]1c2c(n(Cc3cnccn3)c1C)C(=O)c1ccccc1C2=O [YM155] (first compound 0.8 µM, partner dose 0.0004 µM) | 138 | 104 | 263 | 190 | 87.3 | 39.2 | 80.3 | 26.2 | 153 | 22.1 | 117 | 91.9 | 83.8 | 106 |
| Nc1nc(F)nc2c1ncn2[C@@H]1O[C@H](CO)[C@@H](O)[C@@H]1O [fludarabine] + C=CCNC1=C2C[C@@H](C)C[C@H](OC)[C@H](O)[C@@H](C)/C=C(\C)[C@H](OC(N)=O)[C@@H](OC)/C=C\C=C(/C)C(=O)NC(=CC1=O)C2=O [Tanespimycin] (first compound 0.2 µM, partner dose 0.002 µM) | 198 | 471 | 160 | 137 | 41.8 | 799 | 4230 | 32.7 | 158 | 146 | 104 | 134 | 102 | 560 |
| CCCS(=O)(=O)Nc1ccc(F)c(C(=O)c2c[nH]c3ncc(Cl)cc23)c1F + COc1ccc(Cl)c(Nc2nc3ccccc3nc2NS(=O)(=O)c2cccc(NC(=O)C(C)(C)N)c2)c1 [XL147] (first compound 0.08 µM, partner dose 0.8 µM) | 50.4 | 122 | 161 | 74.5 | 113 | 101 | 67.8 | 401 | 180 | 31.9 | 103 | 42.5 | 126 | 45.2 |
| Nc1nc(F)nc2c1ncn2[C@@H]1O[C@H](CO)[C@@H](O)[C@@H]1O [fludarabine] + Cn1c(Nc2ccc(C(F)(F)F)cc2)nc2cc(Oc3ccnc(-c4ncc(C(F)(F)F)[nH]4)c3)ccc21 [CHIR265] (first compound 0.2 µM, partner dose 0.08 µM) | 91.9 | 646 | 194 | 344 | 446 | 1000 | 1130 | 245 | 492 | 127 | 116 | 636 | 133 | 161 |
| CS(=O)(=O)CCNCc1ccc(-c2ccc3ncnc(Nc4ccc(OCc5cccc(F)c5)c(Cl)c4)c3c2)o1 [lapatinib] + C#Cc1cccc(Nc2ncnc3cc(OCCOC)c(OCCOC)cc23)c1 [erlotinib] (first compound 0.8 µM, partner dose 0.8 µM) | 156 | 85.7 | 52.5 | 41.4 | 48.2 | 160 | 67.9 | 35.5 | 74.5 | 104 | 94 | 110 | 97.5 | 54.1 |
| Cc1cc(Nc2cc(N3CCN(C)CC3)nc(/C=C/c3ccccc3)n2)n[nH]1 + Clc1ccc(Nc2nnc(Cc3ccncc3)c3ccccc23)cc1 [vatalanib] (first compound 0.04 µM, partner dose 2 µM) | 50.9 | 143 | 81.8 | 83.5 | 27.7 | 69.4 | 34.8 | 92.6 | 172 | 73.3 | 109 | 79.2 | 95.4 | 189 |
| CNC(=O)c1cc(Oc2ccc(NC(=O)Nc3ccc(Cl)c(C(F)(F)F)c3)cc2)ccn1 [sorafenib] + CC(=O)c1c(C)c2cnc(Nc3ccc(N4CCNCC4)cn3)nc2n(C2CCCC2)c1=O [palbociclib] (first compound 0.4 µM, partner dose 0.04 µM) | 149 | 117 | 100 | 125 | 83.4 | 149 | 103 | 76.9 | 93.3 | 45.5 | 99.4 | 224 | 105 | 48.9 |

Pulled one by one from above (two):

| Structure (SMILES) | cleaved PARP positive nuclei fraction [1] [%] | cleaved PARP positive nuclei fraction [2] [%] | cleaved PARP positive nuclei fraction [3] [%] | cleaved PARP positive nuclei fraction [4] [%] | cleaved PARP positive nuclei fraction [5] [%] | cleaved PARP positive nuclei fraction [6] [%] | cleaved PARP positive nuclei fraction [7] [%] | cleaved PARP positive nuclei fraction [8] [%] | cleaved PARP positive nuclei fraction [9] [%] | cleaved PARP positive nuclei fraction [10] [%] | cleaved PARP positive nuclei fraction [11] [%] | cleaved PARP positive nuclei fraction [12] [%] | cleaved PARP positive nuclei fraction [13] [%] | cleaved PARP positive nuclei fraction [14] [%] |
| --- | --- | --- | --- | --- | --- | --- | --- | --- | --- | --- | --- | --- | --- | --- |
| Cc1cc(Nc2cc(N3CCN(C)CC3)nc(/C=C/c3ccccc3)n2)n[nH]1 + Clc1ccc(Nc2nnc(Cc3ccncc3)c3ccccc23)cc1 [vatalanib] (first compound 0.04 µM, partner dose 2 µM) | 50.9 | 143 | 81.8 | 83.5 | 27.7 | 69.4 | 34.8 | 92.6 | 172 | 73.3 | 109 | 79.2 | 95.4 | 189 |
| CNC(=O)c1cc(Oc2ccc(NC(=O)Nc3ccc(Cl)c(C(F)(F)F)c3)cc2)ccn1 [sorafenib] + CC(=O)c1c(C)c2cnc(Nc3ccc(N4CCNCC4)cn3)nc2n(C2CCCC2)c1=O [palbociclib] (first compound 0.4 µM, partner dose 0.04 µM) | 149 | 117 | 100 | 125 | 83.4 | 149 | 103 | 76.9 | 93.3 | 45.5 | 99.4 | 224 | 105 | 48.9 |
